Test results as given in the supplement of paper PMC10338343.
± gives the standard deviation. Only a part is listed here, and it is no random draw. Many entries were measured with a wide error.

These sequences were tested on MILI (PIWIL2) piRISC loaded with piRNA #2 (26 nt) (assay: pre-steady-state target cleavage rate (min^-1); MIWI and MILI are mouse PIWI proteins and EfPiwi is from a freshwater sponge; tags in brackets are library labels; higher = faster piRNA-guided slicing of the target). Conditions: guide: piRNA #2 5'p-UUAGGUAACCCAGUAGAUCCAGAGGA; auxiliary factor: 500 nM mouse GTSF1.
Summary of the method: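 The pre-steady-state cleavage rate came from a burst-and-steady-state fit to pooled data from three Cleave-'n-Seq trials, in which uncleaved targets were sequenced and normalised to depth and to weakly complementary targets. Each reaction held 0.1 nM transcribed, DNA-blocked target RNA library and 1 nM active affinity-purified piRISC carrying one synthetic guide, with or without 500 nM GTSF1 partner protein, in HEPES–potassium acetate buffer at 33 °C for 0–8 or 0–960 min. k3 was capped at 0.0001 min^-1.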
For CUUAACCUCUGGAUCAACUCGGUUACCUAA, the “pre-steady-state target cleavage rate” value was 0.00107 ± 0.0098. With CUUAUCCUCUGCAUCUACUGGGAUACCUAA the “pre-steady-state target cleavage rate” value was 0.0522 ± 0.025. For CUUAAGGAGUGGAUCUACUGGGUUCCUAA, the “pre-steady-state target cleavage rate” value was 0.000546 ± 0.017. In the case of CUUAAGGAGUGGAUCUACUGGGUACCUAA, the “pre-steady-state target cleavage rate” value is reported as 0.000578 ± 0.017. For CUUAUCCUCUGGAUCUACUGUGGUUACCUAA, the “pre-steady-state target cleavage rate” value was 0.00184 ± 0.0049. For CUUAAGGAGUGGAUCUACUGGGUAACCUUA, the “pre-steady-state target cleavage rate” value was 0.00357 ± 0.0049. CUUAAGGAGACCUUCUACGGGUUACCUAA was tested, and the “pre-steady-state target cleavage rate” value was 0.000614 ± 0.014. In the case of CUUAACGUCUGGAUCUACUCGGUUACCUAA, the “pre-steady-state target cleavage rate” value is reported as 0.00178 ± 0.0086. For CUUAAGGAGACCAUCUACUGCCUUACCUAA, the “pre-steady-state target cleavage rate” value was 0.000239 ± 0.013. CUUAAGGAGUGGAUCUACUCGGGUUACCUAA was tested, and the “pre-steady-state target cleavage rate” value was 0.000198 ± 0.046. In the case of CUUAAGGAGUCGAUCUACUGGGUUACCAAA, the “pre-steady-state target cleavage rate” value is reported as 0.000928 ± 0.015. In the case of CUUAAGCUCUGGAUCUACUGGGUUAGCUAA, the “pre-steady-state target cleavage rate” value is reported as 0.094 ± 0.018. In the case of CUUAACCUCUGGAUCUACAGGCUUACCUAA, the “pre-steady-state target cleavage rate” value is reported as 0.00195 ± 0.0056. CUUAAGGAGUGGAUCUACUGGGAUUCCUAA was tested, and the “pre-steady-state target cleavage rate” value was 0.00134 ± 0.0052. CUUAAGGAGACCAUCUGCUGGGUUACCUAA was tested, and the “pre-steady-state target cleavage rate” value was 0.00101 ± 0.016. For CUUAAGGACUGGUUGUACUGGGUUACCUAA, the “pre-steady-state target cleavage rate” value was 0.00801 ± 0.01. With CUUAAGGACUGGAUCUACUGGGUUAUCCUAA the “pre-steady-state target cleavage rate” value was 0.0104 ± 0.012. In the case of CUUAAGGAGUGGUACUACUGGGUUACCUAA, the “pre-steady-state target cleavage rate” value is reported as 0.00115 ± 0.01. CUUAAGGAGACCUACCUACUGGGUUACCUAA was tested, and the “pre-steady-state target cleavage rate” value was 0.000305 ± 0.027. With CUUAAGGUCUGGAUCUACUGCGGUUACCUAA the “pre-steady-state target cleavage rate” value was 0.000824 ± 0.0095. In the case of CUUAAGGAGACCAUCAACUGGGUUACCAAA, the “pre-steady-state target cleavage rate” value is reported as 0.000238 ± 0.036. With CUUAAGGACUGGAUCUACUGGGUUAGCUAA the “pre-steady-state target cleavage rate” value was 0.00637 ± 0.0065. With CUUAAGGAGUGGAUCUUACUGGGUUACCUAA the “pre-steady-state target cleavage rate” value was 0.000503 ± 0.012. With CUUAAGGAGACGAUCUACUGGGCUUACCUAA the “pre-steady-state target cleavage rate” value was 0.00011 ± 0.062. For CUUAAGGUGUCGAUCUACUGGGUUACCUAA, the “pre-steady-state target cleavage rate” value was 0.0031 ± 0.0034. CUUAAGGAGAGGAUCUACUGGAGUUACCUAA was tested, and the “pre-steady-state target cleavage rate” value was 0.00101 ± 0.012. In the case of CUUAAGGAGACGUUCUACUGGGUUACCUUA, the “pre-steady-state target cleavage rate” value is reported as 0.000497 ± 0.013. For “CUUAAGGAGACCUAGUACUGGGUUACCUAG [g2:g15:cont:t1G]”, the “pre-steady-state target cleavage rate” value was 0.000552 ± 0.016. With CUUAAGGAGAGGAUCUUCUGGGUAACCUAA the “pre-steady-state target cleavage rate” value was 0.00081 ± 0.011. CUUAAGGAGACCUUCUACUGGCUUAGCUAA was tested, and the “pre-steady-state target cleavage rate” value was 0.00213 ± 0.006. CUUAAGGAGACGUUCUACUGGGUUACCUAA was tested, and the “pre-steady-state target cleavage rate” value was 0.0015 ± 0.0046. “CUUAUCCUCUGGAUCUUGACCCAAUGGAUA [g15:g26:cont:t1A]” was tested, and the “pre-steady-state target cleavage rate” value was 0.000479 ± 0.015. In the case of CUUAAGGAGACCUAGAUCUGGGUCUACCUAA, the “pre-steady-state target cleavage rate” value is reported as 0.000496 ± 0.019. With CUUAAGGACUGGUUCUACUGGGUUUCCUAA the “pre-steady-state target cleavage rate” value was 0.00183 ± 0.013. For CUUAAGCUCUGGAUCUACUGGCUUACCUUA, the “pre-steady-state target cleavage rate” value was 0.000513 ± 0.015. For CUUAAGGACGUGGAUCUACUGGGUUACCUAA, the “pre-steady-state target cleavage rate” value was 0.0179 ± 0.02. CUUAAGGAGACCUUCUACUGGAGUUACCUAA was tested, and the “pre-steady-state target cleavage rate” value was 0.00084 ± 0.0088. In the case of CUUAAGGAGACCAUCUACUGGGUUAGCUAA, the “pre-steady-state target cleavage rate” value is reported as 0.000777 ± 0.0084. CUUAAGGAGACCAUCUACUAGGGUUACCUAA was tested, and the “pre-steady-state target cleavage rate” value was 0.0014 ± 0.0065. For CUUAAGCUCUGGAUCAACUGGCUUACCUAA, the “pre-steady-state target cleavage rate” value was 0.000417 ± 0.02. CUUAAGGACUGCAUCUACUGGGUUACGUAA was tested, and the “pre-steady-state target cleavage rate” value was 0.00269 ± 0.0097. For CUUAAGGACUGUAUCUACUGGGUUACCUAA, the “pre-steady-state target cleavage rate” value was 0.002 ± 0.016. With CUUAAGGAGACCUAGUUACUGGGUUACCUAA the “pre-steady-state target cleavage rate” value was 0.000109 ± 0.042. With CUUAAGGAGACGUUCUAGUGGGUUACCUAA the “pre-steady-state target cleavage rate” value was 0.000892 ± 0.009. CUUAAGGAGACCUUCUACUGGGUUACCAUA was tested, and the “pre-steady-state target cleavage rate” value was 0.000608 ± 0.011. With CUUAAGGAGACCUACUACGUGGGUUACCUAA the “pre-steady-state target cleavage rate” value was 0.000355 ± 0.026. CUUAAGGAGACGAUCUACUCGGUUACCUUA was tested, and the “pre-steady-state target cleavage rate” value was 0.000649 ± 0.013. For CUUAUCCUCUGGAUGUACUGGGUUACCUAA, the “pre-steady-state target cleavage rate” value was 0.108 ± 0.022. In the case of CUUAAGCUCUGGAUCUACUGCGGUUACCUAA, the “pre-steady-state target cleavage rate” value is reported as 0.000139 ± 0.03. CUUAAGGAGACCUAGAUGUGGGUUAACCUAA was tested, and the “pre-steady-state target cleavage rate” value was 0.000229 ± 0.026. For CUUAAGGAGACCUACUUACUGGGUUACCUAA, the “pre-steady-state target cleavage rate” value was 0.000347 ± 0.018. In the case of CUUAAGGAGUGGAGUCUACUGGGUUACCUAA, the “pre-steady-state target cleavage rate” value is reported as 0.00184 ± 0.0056. CUUAAGGAGACGAUCUACAGGGUUACCUUA was tested, and the “pre-steady-state target cleavage rate” value was 0.00278 ± 0.0056. For CUUAAGGAGUGGAUCUACUGCGUUACCAAA, the “pre-steady-state target cleavage rate” value was 0.000826 ± 0.018. With CUUAAGGAGACCUAGAUCUGGGUUACCUGA the “pre-steady-state target cleavage rate” value was 0.000141 ± 0.074. With CUUAAGGAGACCUAGAACAGGGUUACCUUA the “pre-steady-state target cleavage rate” value was 0.000318 ± 0.021. With CUUAAGGAGUGGAACUACUGGGUUACCAAA the “pre-steady-state target cleavage rate” value was 0.000388 ± 0.031. With CUUAAGGAGAGGAUCUACUGGGUUACCUGAA the “pre-steady-state target cleavage rate” value was 0.00369 ± 0.0055. CUUAAGGAGACGAUCAACUGGGUUACCUUA was tested, and the “pre-steady-state target cleavage rate” value was 0.000875 ± 0.0081. CUUAAGGAGACCAUGUACUGGGUUACCUAA was tested, and the “pre-steady-state target cleavage rate” value was 0.001 ± 0.0083. In the case of CUUAAGGAGCGGAUCUACUGGGUUACCUAA, the “pre-steady-state target cleavage rate” value is reported as 0.00694 ± 0.01. In the case of CUUAAGGAGUGCAUCUACUGGGAUACCUAA, the “pre-steady-state target cleavage rate” value is reported as 0.000781 ± 0.015. With CUUAAGGUCUGGAUCUACUGUGGUUACCUAA the “pre-steady-state target cleavage rate” value was 0.000957 ± 0.0082. For CUUAAGGAGACCUACUACGGGUUACCUAA, the “pre-steady-state target cleavage rate” value was 0.000322 ± 0.025. CUUAAGGUCUGGAAGAACUGGGUUACCUAA was tested, and the “pre-steady-state target cleavage rate” value was 0.00324 ± 0.011. For CUUAUCCUCUGGAUCUACUCGGUUACCUUA, the “pre-steady-state target cleavage rate” value was 0.003 ± 0.0052. CUUAAGGUCUGGAUCAUACUGGGUUACCUAA was tested, and the “pre-steady-state target cleavage rate” value was 0.000993 ± 0.0058. CUUAAGGAGACCAUCUAAUGGGUUACCUAA was tested, and the “pre-steady-state target cleavage rate” value was 0.000664 ± 0.013. With CUUAUCCUCUGGAUCUACUGGCAUACCUAA the “pre-steady-state target cleavage rate” value was 0.000228 ± 0.016. With CUUAAGGAGUGGAUCUACUGGGAUACCUUA the “pre-steady-state target cleavage rate” value was 0.00157 ± 0.0069. In the case of CUUAAGGAGUGGAUCUACUGGUUACCUAA, the “pre-steady-state target cleavage rate” value is reported as 0.00125 ± 0.011. With “CUUAAGGAGACCUUCUACUGGGUUACCUAC [g2:g17:cont:t1C]” the “pre-steady-state target cleavage rate” value was 0.000722 ± 0.017. With CUUAAGGAGAGGAUCUACUGUGGUUACCUAA the “pre-steady-state target cleavage rate” value was 0.00104 ± 0.01. For CUUAAGGAGACGAUCUACUGGGUGUACCUAA, the “pre-steady-state target cleavage rate” value was 0.000832 ± 0.011. In the case of CUUAAGGUCUGGAUCUACUGGGUAACGUAA, the “pre-steady-state target cleavage rate” value is reported as 0.00171 ± 0.0069. For CUUAAGGAGAGGAUCUUCAGGGUUACCUAA, the “pre-steady-state target cleavage rate” value was 0.00103 ± 0.01. With CUUAAGGAGAGGUUCUACUCGGUUACCUAA the “pre-steady-state target cleavage rate” value was 0.000778 ± 0.0088. In the case of CUUAAGGAGACGAUCUCACUGGGUUACCUAA, the “pre-steady-state target cleavage rate” value is reported as 0.00015 ± 0.048. For CUUAAGGAGACGAUCUACUGGGUUGACCUAA, the “pre-steady-state target cleavage rate” value was 0.000876 ± 0.0064. In the case of CUUACCCUCUGGAUCUACUGGGUUACCUAA, the “pre-steady-state target cleavage rate” value is reported as 0.11 ± 0.016. With CUUAAGGACUGGAUCUACUGGGAUUCCUAA the “pre-steady-state target cleavage rate” value was 0.000166 ± 0.039. For CUUAAGGAGACCAUCUACUGGAUUACCUAA, the “pre-steady-state target cleavage rate” value was 0.00106 ± 0.007. For CUUAAGGAGACCUUCUAGUGGGUUACCAAA, the “pre-steady-state target cleavage rate” value was 0.000651 ± 0.022. In the case of CUUAAGGAGAGGUACUACUGGGUUACCUAA, the “pre-steady-state target cleavage rate” value is reported as 0.00107 ± 0.0085. With CUUAAGGAGACCAACUUCUGGGUUACCUAA the “pre-steady-state target cleavage rate” value was 0.000828 ± 0.011. CUUAAGGAGACCUUCUACAGGGUUACCUAA was tested, and the “pre-steady-state target cleavage rate” value was 0.00113 ± 0.0049. With CUUAAGGAGACCUAGUACUGCGUUACCUUA the “pre-steady-state target cleavage rate” value was 0.000224 ± 0.029. In the case of CUUAAGGAGUGGAUCUACUGAGGUUACCUAA, the “pre-steady-state target cleavage rate” value is reported as 0.0004 ± 0.013. CUUAAGGAGAGGAUCUACUGCGUUUCCUAA was tested, and the “pre-steady-state target cleavage rate” value was 0.00133 ± 0.0064. For CUUAAGGAGACCUAGUACUGGGUUCACCUAA, the “pre-steady-state target cleavage rate” value was 0.00031 ± 0.027. With CUUAAGGAGACCUAGAUCCUGGGUUACCUAA the “pre-steady-state target cleavage rate” value was 0.000411 ± 0.021.
